According to US20250186321A1, “FORMULATION USING AMINO ACID AND CARBOXYLIC ACID, ORGANIC SALT, AND COMPOSITION COMPRISING SAME AND USE THEREOF” (MIYOSHI OIL & FAT CO., LTD., priority 2021, published 2025):

Tests used:
[1] = Evaluation on hair surface improvement (SEM of damaged hair); conditions: 1 wt. % in 50 wt. % ethanol aqueous solution, damaged hair immersed 15 minutes
[2] = Sensory evaluation 1 (spreadability, moisture retention feeling, non-stickiness on skin); conditions: diluted to 20 wt. %, sprayed on the skin; scale of 1 to 5; average of five panel members
[3] = Adhesiveness to hair 1 (adhesion rate); design: species or system human; conditions: healthy hair immersed for 60 minutes in 80 wt. % aqueous solution; from hair weight before and after

For NCCCC[C@H](N)C(=O)O.O=C(O)[C@H](O)[C@@H](O)[C@H](O)[C@H](O)CO.O=C(O)[C@H](O)[C@@H](O)[C@H](O)[C@H](O)CO [Formulation 30], the “hair surface improvement (raising of cuticles)” value (“hair surface improvement” below) [1] was “particularly excellent hair surface improving effects” and the “hair surface improvement” value ([1]; listed as Working example 690) was “high levels of hair surface improvement effects”.
For N=C(N)NCCC[C@H](N)C(=O)O.O=C(O)CC(O)(CC(=O)O)C(=O)O [Formulation 58], the “hair surface improvement” value [1] was “particularly excellent hair surface improving effects” and the “hair surface improvement” value ([1]; listed as Working example 695) was “high levels of hair surface improvement effects”.
With CC(O)C(=O)[O-].[K+] (stereo not drawn) [Formulation 428] the “Sensory evaluation 1: Moisture retention feeling” value [2] was 1.4, the “Sensory evaluation 1: Non stickiness” value [2] was 2.4 and the “Sensory evaluation 1: Spreadability” value [2] was 1.2. The “Adhesion rate of formulation” value [3] was 0.4%.
In the case of Cl.NCCCC[C@H](N)C(=O)O [Formulation 429], the “Sensory evaluation 1: Moisture retention feeling” value [2] is reported as 1.5, the “Sensory evaluation 1: Non stickiness” value [2] is reported as 2.2 and the “Sensory evaluation 1: Spreadability” value [2] is reported as 1.4. The “Adhesion rate of formulation” value [3] was 0.6%.
For CCCC[N+](CCCC)(CCCC)CCCC.[Br-] [Formulation 430], the “Adhesion rate of formulation” value [3] was 1.0%.
In the case of CCCCn1cc[n+](C)c1.F[B-](F)(F)F [Formulation 431], the “Adhesion rate of formulation” value [3] is reported as 0.6%.
With OCC(O)CO [Formulation 432] the “Sensory evaluation 1: Moisture retention feeling” value [2] was 3.3, the “Sensory evaluation 1: Non stickiness” value [2] was 2.1 and the “Sensory evaluation 1: Spreadability” value [2] was 2.8. The “Adhesion rate of formulation” value [3] was 1.1%.
